The values below come from article doi:10.1101/2020.07.07.190496.

Chains of the proteins cited; added tags and fusions are not shown. Lines headed by an entry give the natural chain unless they say otherwise; changes in a name come on top. Residues count along the entry.
UniProt P07585, residues 31-359: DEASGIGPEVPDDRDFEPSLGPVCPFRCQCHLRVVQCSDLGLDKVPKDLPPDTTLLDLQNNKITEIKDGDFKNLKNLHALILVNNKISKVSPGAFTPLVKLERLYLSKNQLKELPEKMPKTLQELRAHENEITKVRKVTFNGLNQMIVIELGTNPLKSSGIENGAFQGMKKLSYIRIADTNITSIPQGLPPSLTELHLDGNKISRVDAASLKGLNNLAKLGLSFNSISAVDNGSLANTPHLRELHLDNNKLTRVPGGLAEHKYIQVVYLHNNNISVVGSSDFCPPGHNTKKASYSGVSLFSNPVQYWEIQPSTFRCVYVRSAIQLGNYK
UniProt P12830: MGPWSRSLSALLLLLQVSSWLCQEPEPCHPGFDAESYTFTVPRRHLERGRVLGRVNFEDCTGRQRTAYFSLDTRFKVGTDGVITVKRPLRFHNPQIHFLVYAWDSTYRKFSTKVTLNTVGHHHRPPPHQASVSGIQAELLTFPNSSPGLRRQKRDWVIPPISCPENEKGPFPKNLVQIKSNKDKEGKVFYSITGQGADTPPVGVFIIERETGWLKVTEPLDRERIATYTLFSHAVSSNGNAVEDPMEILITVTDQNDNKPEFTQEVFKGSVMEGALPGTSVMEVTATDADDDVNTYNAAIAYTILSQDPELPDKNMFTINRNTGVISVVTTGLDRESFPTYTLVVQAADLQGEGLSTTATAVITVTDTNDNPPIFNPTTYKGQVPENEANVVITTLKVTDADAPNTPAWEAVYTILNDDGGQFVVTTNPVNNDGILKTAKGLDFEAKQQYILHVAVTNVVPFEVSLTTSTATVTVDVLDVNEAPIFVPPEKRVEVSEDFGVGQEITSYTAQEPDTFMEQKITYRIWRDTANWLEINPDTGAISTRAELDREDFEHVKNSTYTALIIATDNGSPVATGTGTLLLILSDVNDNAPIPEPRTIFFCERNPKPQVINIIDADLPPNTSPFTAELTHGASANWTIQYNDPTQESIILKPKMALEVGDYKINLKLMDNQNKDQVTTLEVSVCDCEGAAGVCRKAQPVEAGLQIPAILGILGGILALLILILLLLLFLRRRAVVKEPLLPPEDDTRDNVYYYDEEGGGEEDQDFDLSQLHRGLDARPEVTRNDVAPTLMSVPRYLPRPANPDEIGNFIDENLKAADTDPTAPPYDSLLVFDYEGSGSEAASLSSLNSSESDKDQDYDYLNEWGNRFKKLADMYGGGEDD

Where two headings read alike, the source gives them in different places. Results are given in words; binding and its absence hold for the method and conditions named. In cells and extracts the contact can be indirect. Binding calls can cover weak binding; strength is not graded here.

Holding throughout (experiment): co-IP
For experiment [1], the target named is hemagglutinin (HA)-tagged Decorin (human (by the printed Gene ID 1634)) (UniProt P07585).
Experiment [2] shares this target. The source holds these as a separate data set.
Experiment [3] concerns the target Flag/Strep double-tagged E-cadherin (human (by the printed Gene ID 999)) (UniProt P12830).
For experiment [4] the target is unchanged. The source holds these as a separate data set.

For the substance “Flag/Strep double-tagged E-cadherin (from UniProt P12830)”, the binding result in experiment [1] and in experiment [2] was “binds” each time.
For the substance “hemagglutinin (HA)-tagged Decorin (from UniProt P07585 31-359)”, the binding entry in experiment [3] and in experiment [4] was “binds” throughout.
